Measured values as given in patent US20230065079A1, “FATTY ACID DERIVATIVE LABELED WITH POSITRON-EMITTING RADIONUCLIDE” (ASTELLAS PHARMA INC., priority 2020, published 2023).
Some results were stated once for a whole list of compounds, not compound by compound.

Experiment: PET test using normal cynomolgus monkey (heart contrast PET, SUV in myocardium and bone ROI)
Type: in vivo
Conditions: from Table 10 and Table 11, compared to Reference Example 15 ([^18F]FTO)
Excerpt: Solutions containing each compound prepared in Examples 1 to 7 and Reference Example 15 ([^18F]FTO) were used to perform a heart contrast PET test using normal cynomolgus monkeys.
For performing non-invasive PET imaging, in a state in which a male cynomolgus monkey was anesthetized with inhalation anesthetic isoflurane, the monkey was held at a supine body position on a PET camera SHR17000 (manufactured by Hamamatsu Photonics K.K.), the solution containing each compound (about 300 MBq) was administered from the lower extremity vein, and continuous imaging was performed for 180 minutes or more after the administration. The PET images were reconstructed by dynamic row-action maximum likelihood algorithm (DRAMA) and average images per each time section which is divided every 20 minutes from 0 minutes to 180 minutes after the administration, are obtained. Then, the region of interest (ROI) was set in the myocardium region or bone (near the spine), and the accumulation (standardized uptake value (SUV)) of each compound was calculated as {radioactivity count in the ROI (MBq/cc)/[dose (MBq)/body weight (g)]}.
The SUV values quantified by setting the ROI for the myocardium and the bone of each compound are shown in Tables 10 and 11 as SUV (myocardium) and SUV (bone). […] A case where the target organ cannot be confirmed in the image and the ROI cannot be set is denoted as n.d. The time in the Tables represents an end point of each time section, for example, “20 minutes” represents the SUV value from 0 minutes to 20 minutes after, and “180 minutes” represents the SUV value from 160 minutes to 180 minutes after the administration. In addition, Maximum Intensity Projection (MIP) PET images 60 minutes and 180 minutes after the administration of the compounds of Reference Example 15 ([…]) and Example 6 are shown in FIGS. 1A to 1D.
In the case of CC/C=C\C/C=C\C/C=C\CC([18F])CCSCCC(=O)O (stereo not shown) [Example 1, 3-{[(5Z,8Z,11Z)-3-[lSF]fluorotetradeca-5,8,11-trien-1-yl]sulfanyl}propanoic acid], the “ratio of the accumulation to the myocardium with respect to the non-specific accumulation to the bone” value is reported as “improved compared to Reference Example 15”. With CCCCCCCCCC([18F])CCSCCC(=O)O (stereo not shown) [Example 2, 3-[(3-[^18F]fluorododecyl)sulfanyl]propanoic acid] the “ratio of the accumulation to the myocardium with respect to the non-specific accumulation to the bone” value was “improved compared to Reference Example 15”. In the case of CCCCC/C=C\C/C=C\CC([18F])CCSCCC(=O)O (stereo not shown) [Example 3, 3-{[(5Z,8Z)-3-[^18F]fluorotetradeca-5,8-dien-1-yl]sulfanyl}propanoic acid], the “ratio of the accumulation to the myocardium with respect to the non-specific accumulation to the bone” value is reported as “improved compared to Reference Example 15”. In the case of CCCCCCCCCCCC([18F])CCSCCC(=O)O (stereo not shown) [Example 4, 3-[(3-[^18F]fluorotetradecyl)sulfanyl]propanoic acid], the “ratio of the accumulation to the myocardium with respect to the non-specific accumulation to the bone” value is reported as “improved compared to Reference Example 15”. With CCCCCCCC/C=C/CC([18F])CCSCCC(=O)O (stereo not shown) [Example 5, 3-{[(5E)-3-[^18F]fluorotetradec-5-en-1-yl]sulfanyl}propanoic acid] the “ratio of the accumulation to the myocardium with respect to the non-specific accumulation to the bone” value was “improved compared to Reference Example 15”. With CCCCCCCCC1CC1CC([18F])CCSCCC(=O)O (stereo not shown) [Example 6, 3-{[3-[^18F]fluoro-4-(2-octylcyclopropyl)butyl]sulfanyl}propanoic acid] the “ratio of the accumulation to the myocardium with respect to the non-specific accumulation to the bone” value was “improved compared to Reference Example 15”. In the case of CCCCCCCCC([18F])CCSCCCCC(=O)O (stereo not shown) [Example 7, 5-[(3-[^18F]fluoroundecyl)sulfanyl]pentanoic acid], the “ratio of the accumulation to the myocardium with respect to the non-specific accumulation to the bone” value is reported as “improved compared to Reference Example 15”.
